{"source": "paper doi:10.1101/2025.03.31.646258", "binders": {"B1": {"name": "CLC-7 (untagged), expressed in HEK293 cells (protein, UniProt O70496 1-803)", "chain": "MANVSKKVSWSGRDRDDEEGAPLLRRTGQPDEETPLLNGAGPGARQSHSALFRIGQMNNVELDDELLDPEVDPPHTFPKEIPHNEKLLSLKYESLDYDNSENQLFLEEERRINHTAFRTVEIKRWVICALIGILTGLVACFIDIVVENLAGLKYRVIKDNIDKFTEKGGLSFSLLLWATLNSAFVLVGSVIVAFIEPVAAGSGIPQIKCFLNGVKIPHVVRLKTLVIKVSGVILSVVGGLAVGKEGPMIHSGSVIAAGISQGRSTSLKRDFKIFEYFRRDTEKRDFVSAGAAAGVSAAFGAPVGGVLFSLEEGASFWNQFLTWRIFFASMISTFTLNFVLSIYHGNMWDLSSPGLINFGRFDSEKMAYTIHEIPVFIAMGVVGGILGAVFNALNYWLTMFRIRYIHRPCLQVIEAMLVAAVTATVAFVLIYSSRDCQPLQGSSMSYPLQLFCADGEYNSMAAAFFNTPEKSVVSLFHDPPGSYNPMTLGLFTLVYFFLACWTYGLTVSAGVFIPSLLIGAAWGRLFGISLSYLTGAAIWADPGKYALMGAAAQLGGIVRMTLSLTVIMMEATSNVTYGFPIMLVLMTAKIVGDVFIEGLYDMHIQLQSVPFLHWEAPVTSHSLTAREVMSTPVTCLRRREKVGIIVDVLSDTASNHNGFPVVEDVGDTQPARLQGLILRSQLIVLLKHKVFVERSNMGLVQRRLRLKDFRDAYPRFPPIQSIHVSQDERECTMDLSEFMNPSPYTVPQEASLPRVFKLFRALGLRHLVVVDNHNQVVGLVTRKDLARYRLGKGGLEELSLAQT"}, "B2": {"name": "CLC-7, endogenous in RAW264.7 OCLs (protein, UniProt O70496 1-803)", "chain": "B1 chain"}}, "assay_in_all_cases": "co-IP", "key": {"[1]": {"molecular_target": "T1, Flag-tagged SNX10 (sorting nexin 10) (UniProt Q9CWT3)", "T1 sequence": "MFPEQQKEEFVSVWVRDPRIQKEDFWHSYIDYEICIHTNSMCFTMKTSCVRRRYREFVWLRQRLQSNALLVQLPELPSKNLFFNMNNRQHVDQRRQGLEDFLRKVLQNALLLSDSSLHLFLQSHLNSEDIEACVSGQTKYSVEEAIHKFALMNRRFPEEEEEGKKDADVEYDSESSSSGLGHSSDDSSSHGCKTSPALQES"}, "[2]": {"molecular_target": "T2, OSTM1-V5, exogenous in RAW264.7 OCLs (mouse) (UniProt Q8BGT0)", "T2 sequence": "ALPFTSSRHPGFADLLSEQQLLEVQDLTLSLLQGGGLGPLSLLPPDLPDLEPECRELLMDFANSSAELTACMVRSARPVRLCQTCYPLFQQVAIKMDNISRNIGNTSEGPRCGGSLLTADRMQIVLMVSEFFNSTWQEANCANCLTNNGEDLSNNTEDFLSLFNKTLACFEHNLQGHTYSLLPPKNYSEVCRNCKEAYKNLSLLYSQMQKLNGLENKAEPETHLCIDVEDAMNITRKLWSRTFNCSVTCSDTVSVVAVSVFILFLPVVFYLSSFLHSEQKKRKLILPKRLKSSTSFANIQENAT"}, "[3]": {"molecular_target": "T3, SNX10-HA (endogenous SNX10 with a knocked-in C-terminal HA tag) (mouse (endogenous in RAW264.7)) (UniProt Q9CWT3)", "T3 sequence": "T1 sequence"}}, "note": "No constants are given. Whether binding was seen depends on the method and setting. In cells and extracts the contact can be indirect. Some binding calls cover weakened binding; strength is not graded here. Tags and fused reporters may be left off the sequences shown.", "data": [{"binder": "B1", "values": [{"measurement": "binding", "setting": "[1]", "value": "binds"}]}, {"binder": "B2", "values": [{"measurement": "binding", "setting": "[2]", "value": "binds"}, {"measurement": "binding", "setting": "[3]", "value": "binds"}]}]}
